No constants are given. Whether binding was seen depends on the method and setting. In cells and extracts the contact can be indirect. Some results given as binding are weak or reduced against the parent protein; the word gives no strength. Values belong to the binder of their own block, whether it stands above or below them.
What was measured:
[1] = biological target: T1, Non-POU domain-containing octamer-binding protein (Nono) (mouse (endogenous in NIH/3T3)) (UniProt Q99K48); test: co-IP
T1 sequence: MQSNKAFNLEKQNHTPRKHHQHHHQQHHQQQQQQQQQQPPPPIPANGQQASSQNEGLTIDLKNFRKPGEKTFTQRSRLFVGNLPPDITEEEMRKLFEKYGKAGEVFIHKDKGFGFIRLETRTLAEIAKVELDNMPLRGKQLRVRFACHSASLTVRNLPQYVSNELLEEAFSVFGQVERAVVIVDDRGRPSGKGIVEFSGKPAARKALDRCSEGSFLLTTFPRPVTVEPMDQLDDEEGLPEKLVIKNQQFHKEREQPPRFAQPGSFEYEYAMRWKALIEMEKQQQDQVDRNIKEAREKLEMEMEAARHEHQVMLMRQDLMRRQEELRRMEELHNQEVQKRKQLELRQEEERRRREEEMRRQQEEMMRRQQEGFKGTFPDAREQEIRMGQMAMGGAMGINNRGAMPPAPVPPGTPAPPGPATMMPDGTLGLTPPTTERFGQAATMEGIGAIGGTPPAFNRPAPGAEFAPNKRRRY

[2] = biological target: T2, X chromosome-associated protein 5 (Xap5) (mouse (endogenous in NIH/3T3)) (UniProt Q9WV03); test: co-IP
T2 sequence: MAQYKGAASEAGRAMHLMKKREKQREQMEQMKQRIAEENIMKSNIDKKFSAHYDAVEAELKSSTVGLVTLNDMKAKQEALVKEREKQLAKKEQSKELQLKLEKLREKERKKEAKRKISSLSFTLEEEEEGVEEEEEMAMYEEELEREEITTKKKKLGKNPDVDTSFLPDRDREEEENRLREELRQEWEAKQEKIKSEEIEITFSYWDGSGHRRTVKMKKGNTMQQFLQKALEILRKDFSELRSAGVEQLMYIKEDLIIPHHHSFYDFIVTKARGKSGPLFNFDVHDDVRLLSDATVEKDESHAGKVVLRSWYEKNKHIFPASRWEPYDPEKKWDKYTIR

binding [1]: binds
B1: X chromosome-associated protein 5 (Xap5) (protein, UniProt Q9WV03 1-339)
chain: T2 sequence

binding [2]: binds
B2: Non-POU domain-containing octamer-binding protein (Nono) (protein, UniProt Q99K48 1-473)
chain: T1 sequence

From paper doi:10.1101/2025.11.28.691250
